This test has as its system wild-type P. aeruginosa PA14. The test can be described thus: microbe, parasite or virus in culture. The test is classed as cell-based. The conditions noted are these: reduction of pyocyanin vs WT P. aeruginosa PA14: 0% = WT level, 100% = background medium. On the procedure: Methods. The oxidized form of pyocyanin imparts a green color to P. aeruginosa cultures, making the production of pyocyanin convenient to monitor by UV/Vis absorbance. Overnight P. aeruginosa cultures were subcultured into 5 mL fresh medium at 1:1000 dilution. Synthetic compounds were assayed at 100 μM for end point assays and at concentrations ranging from 200 nM to 200 μM for titrations following 17 hr of aerobic growth with shaking at 37° C. Cells were separated from culture fluids via centrifugation at 13,000 rpm for 15 min. Culture fluids were passed through 0.22 μm syringe driven filters (Millipore). Cell-free culture fluids were analyzed for pyocyanin using wavelength scans on a Beckman Coulter DU-800 spectrophotometer from 200 nm to 800 nm 695 nm was chosen for graphical representation. Titration data were fit with a variable-slope sigmoidal dose-response curve using GraphPad Prism to determine the IC50 values.
The compounds of the first library were assayed in wild-type (WT) P. aeruginosa PA14. Pyocyanin was used as a read-out for quorum sensing activity based on its absorbance at 695 nm. The efficacy of the compounds at reducing pyocyanin levels was calculated with respect to WT levels of pyocyanin, where WT levels of pyocyanin would lead to a 0% efficacy, and an absorbance equal to the background medium would lead to a 100% efficacy. […]

The record followed here is patent US9751851B2, “Molecules and compositions that inhibit gram negative bacteria and their uses” (THE TRUSTEES OF PRINCETON UNIVERSITY, priority 2013, dated 2017).

`O=C(COc1ccc(Br)cc1)Nc1ccnc(C(F)(F)F)c1` [S64, 4-amino-2-trifluoromethylpyridine-C6-4-bromophenoxyhybrid]: under “Pseudomonas aeruginosa, PA14, 17 h, read-out: Efficacy (%), Table 4”, the inhibition at 100 µM was determined as 88%. Besides, the “Efficacy (%)” value (Table 4) was 88 ± 4%.
